According to patent publication US20100196393A1:
Results are given in words; binding and its absence hold for the method and conditions named. Some entries that bind do so weakly or less than the wild type.

Sequences of proteins named here, by UniProt entry; tags and fusion partners are left off. Residues count along the entry.
UniProt P56480, residues 47-529: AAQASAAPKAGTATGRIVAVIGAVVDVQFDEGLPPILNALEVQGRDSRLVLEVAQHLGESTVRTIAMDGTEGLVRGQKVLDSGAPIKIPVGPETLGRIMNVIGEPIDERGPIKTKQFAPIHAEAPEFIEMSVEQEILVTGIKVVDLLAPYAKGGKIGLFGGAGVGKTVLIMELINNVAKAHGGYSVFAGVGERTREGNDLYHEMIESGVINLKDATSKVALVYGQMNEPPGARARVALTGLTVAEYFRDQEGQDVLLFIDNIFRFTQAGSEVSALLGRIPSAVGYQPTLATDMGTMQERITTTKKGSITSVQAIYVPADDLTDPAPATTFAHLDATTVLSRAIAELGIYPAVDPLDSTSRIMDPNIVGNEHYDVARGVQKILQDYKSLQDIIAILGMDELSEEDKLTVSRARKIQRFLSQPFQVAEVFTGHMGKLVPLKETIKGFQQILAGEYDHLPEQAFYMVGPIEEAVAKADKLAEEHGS

Target: beta-F1 ATPase (ATP synthase beta subunit), mouse, on brain microvessels (mouse) (UniProt P56480)
Assay: displacement of I-PACAP27 from mouse brain microvessels by 50 nM unlabeled peptide

binding: binds
Binder: HSDGIFTDSYSRYRKQMAVKKYLAAVLGKRYKQRVKNK (peptide, UniProt P18509 132-169, looked up) [PACAP38]
